System: FeLV retrovirus

SMILES: CCCCCCCCCCCCCCCC[n+]1ccccc1 [CPC, Cetylpyridinium chloride]
- effect of presence or absence of sera on CPC mediated inactivation: no effect

— patent US20090232748A1, “Virucidal activities of cetylpyridinium chloride” (ViraTox, L.L.C., priority 2003, published 2009)
